At least one compound was matched to its structure with a doubt left.
Experiments:
[1] = tested on: NR/hypo-induced vacuoles in PC/RS cortical neurons (MK-801); experiment: Anti-psychotic drugs and sigma blockers: protection against NR/hypo-induced vacuoles; assay type: in vivo; details: rats
Procedure: Several of the antipsychotic agents tested (haloperidol, thioridazine and loxapine) are known to interact with both dopamine receptors and sigma receptors.
Control animals received saline or DMSO, but no anti-psychotic drugs. Test animals were injected ip with an antipsychotic drug, listed above and in Table 2. Vacuoles were counted and data were processed as described in Example 1.

[2] = tested on: NMDA receptors in chick embryo retina; experiment: Excitotoxicity in chick embryo retina (NMDA with MK-801, LSD or DOI); details: NMDA alone 40 μM, 30 min; n=6
Procedure: Several tests were performed to ensure that when a 5HT-2A agonist is administered together with an NMDA antagonist, the 5HT-2A agonist will not interfere with the activity of the NMDA antagonist drug at NMDA receptors.
These experiments were performed using segments of chick embryo retina. This is a widely used model for studying the production and prevention of excitotoxic phenomena, since it is simple and inexpensive. Chick tissue is used, since it tends to provide a better model of adult mammalian tissue than embryonic or juvenile mammalian tissue. Unlike newborn mammals, which are usually blind at birth, baby chicks can see quite well as soon as they emerge from the shell, and the NMDA receptors in chick retinal tissue are fully mature and functional.
In these tests, NMDA was introduced into the incubation medium in a concentration (40 μM) sufficient to produce a fully developed excitotoxic lesion within 30 min, displaying acute degeneration and necrosis of the majority of neurons in the inner layers of the retina.

[3] = tested on: schizophrenia; details: schizophrenic patients; cited from earlier work

Cc1ccccc1N=C(N)Nc1ccccc1C [Di(2-tolyl)guanidine, di(2-tolyl)guanidine]
effect on vacuole formation [1]: shown to block vacuole formation

CN[C@H](CC(=O)O)C(=O)O [NMDA, n-methyl-D-aspartate]
acute excitotoxic lesions of retina [2]: well developed acute lesions affecting the inner neural layers of the retina

Clc1cccc(N2CCNCC2)c1 [m-chlorophenylpiperazine]
effect on symptoms of schizophrenia [3]: can exacerbate the symptoms and displays of schizophrenia

Source: patent US5902815A, “Use of 5HT-2A serotonin agonists to prevent adverse effects of NMDA receptor hypofunction” (priority 1996, dated 1999)
